No constants are given. Whether binding was seen depends on the method and setting. For some assays here: In cells and extracts the contact can be indirect. Some entries that bind do so weakly or less than the wild type.
Tests used:
[1] = biological target: T1, integrin α 4 (ITGA4), endogenous human (human (endogenous in Jurkat cells and in UC patient colon)) (UniProt P13612); test: proximity ligation; in situ PLA (Duolink Brightfield) on a formalin-fixed colon section of a UC patient, anti-CRT FMC75 and anti-ITGA4 EPR1355Y; inflamed and non-inflamed sites
T1 sequence: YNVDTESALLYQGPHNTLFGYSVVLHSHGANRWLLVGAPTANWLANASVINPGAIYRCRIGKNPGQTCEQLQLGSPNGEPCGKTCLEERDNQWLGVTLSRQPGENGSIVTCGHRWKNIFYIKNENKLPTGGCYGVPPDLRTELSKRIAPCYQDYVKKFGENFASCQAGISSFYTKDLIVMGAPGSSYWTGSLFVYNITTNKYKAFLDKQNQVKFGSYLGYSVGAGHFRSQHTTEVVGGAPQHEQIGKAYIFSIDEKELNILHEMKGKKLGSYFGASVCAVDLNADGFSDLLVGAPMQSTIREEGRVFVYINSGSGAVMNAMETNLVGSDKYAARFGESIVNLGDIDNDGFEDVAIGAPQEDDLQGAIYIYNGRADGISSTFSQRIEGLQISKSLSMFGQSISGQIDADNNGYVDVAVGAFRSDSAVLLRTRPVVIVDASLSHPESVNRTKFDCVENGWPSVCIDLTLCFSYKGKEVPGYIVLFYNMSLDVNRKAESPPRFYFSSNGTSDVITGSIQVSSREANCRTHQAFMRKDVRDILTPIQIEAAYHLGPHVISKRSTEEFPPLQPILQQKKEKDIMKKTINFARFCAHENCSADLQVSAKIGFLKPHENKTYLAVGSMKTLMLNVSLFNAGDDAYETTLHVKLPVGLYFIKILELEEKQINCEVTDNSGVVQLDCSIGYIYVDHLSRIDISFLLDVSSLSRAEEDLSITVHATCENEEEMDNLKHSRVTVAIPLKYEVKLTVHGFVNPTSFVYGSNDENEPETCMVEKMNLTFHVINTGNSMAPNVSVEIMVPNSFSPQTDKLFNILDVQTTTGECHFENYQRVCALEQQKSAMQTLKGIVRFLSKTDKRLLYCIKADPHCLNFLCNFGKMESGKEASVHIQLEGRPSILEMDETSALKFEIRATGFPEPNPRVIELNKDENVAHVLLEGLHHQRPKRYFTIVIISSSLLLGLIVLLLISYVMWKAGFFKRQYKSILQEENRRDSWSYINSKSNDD

Sequences of proteins named here, by UniProt entry; tags and fusion partners are left off. Residues count along the entry.
UniProt P14211, residues 18-416: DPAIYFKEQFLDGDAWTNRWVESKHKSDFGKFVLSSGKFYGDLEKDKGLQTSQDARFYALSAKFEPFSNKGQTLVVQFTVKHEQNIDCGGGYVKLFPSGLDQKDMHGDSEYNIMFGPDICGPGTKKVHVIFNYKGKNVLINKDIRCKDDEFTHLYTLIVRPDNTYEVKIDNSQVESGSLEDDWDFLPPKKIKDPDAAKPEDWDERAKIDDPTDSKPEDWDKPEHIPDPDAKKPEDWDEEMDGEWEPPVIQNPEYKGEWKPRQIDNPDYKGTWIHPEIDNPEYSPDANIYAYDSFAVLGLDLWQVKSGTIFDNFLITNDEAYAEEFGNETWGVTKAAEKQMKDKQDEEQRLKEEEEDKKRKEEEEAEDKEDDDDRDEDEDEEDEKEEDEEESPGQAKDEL

[2] = biological target: T1, integrin α 4 (ITGA4), endogenous human (human (endogenous in Jurkat cells and in UC patient colon)); test: proximity ligation; in situ PLA (Duolink Red) on methanol-fixed Jurkat cells stimulated with PMA (100 ng/mL, 30 min), anti-CRT FMC75 and anti-ITGA4 EPR1355Y; also with 5 μM ER-464195-01 or ER-435813-01
[3] = biological target: T2, integrin α 4 (ITGA4), endogenous mouse (mouse (endogenous in colon)) (UniProt Q00651); test: condition: only in mice treated with ER-464195-01 after DSS; proximity ligation; in situ PLA on colon sections of DSS-treated mice after therapeutic treatment with ER-464195-01, anti-CRT N-19 and anti-ITGA4 19676-1-AP
T2 sequence: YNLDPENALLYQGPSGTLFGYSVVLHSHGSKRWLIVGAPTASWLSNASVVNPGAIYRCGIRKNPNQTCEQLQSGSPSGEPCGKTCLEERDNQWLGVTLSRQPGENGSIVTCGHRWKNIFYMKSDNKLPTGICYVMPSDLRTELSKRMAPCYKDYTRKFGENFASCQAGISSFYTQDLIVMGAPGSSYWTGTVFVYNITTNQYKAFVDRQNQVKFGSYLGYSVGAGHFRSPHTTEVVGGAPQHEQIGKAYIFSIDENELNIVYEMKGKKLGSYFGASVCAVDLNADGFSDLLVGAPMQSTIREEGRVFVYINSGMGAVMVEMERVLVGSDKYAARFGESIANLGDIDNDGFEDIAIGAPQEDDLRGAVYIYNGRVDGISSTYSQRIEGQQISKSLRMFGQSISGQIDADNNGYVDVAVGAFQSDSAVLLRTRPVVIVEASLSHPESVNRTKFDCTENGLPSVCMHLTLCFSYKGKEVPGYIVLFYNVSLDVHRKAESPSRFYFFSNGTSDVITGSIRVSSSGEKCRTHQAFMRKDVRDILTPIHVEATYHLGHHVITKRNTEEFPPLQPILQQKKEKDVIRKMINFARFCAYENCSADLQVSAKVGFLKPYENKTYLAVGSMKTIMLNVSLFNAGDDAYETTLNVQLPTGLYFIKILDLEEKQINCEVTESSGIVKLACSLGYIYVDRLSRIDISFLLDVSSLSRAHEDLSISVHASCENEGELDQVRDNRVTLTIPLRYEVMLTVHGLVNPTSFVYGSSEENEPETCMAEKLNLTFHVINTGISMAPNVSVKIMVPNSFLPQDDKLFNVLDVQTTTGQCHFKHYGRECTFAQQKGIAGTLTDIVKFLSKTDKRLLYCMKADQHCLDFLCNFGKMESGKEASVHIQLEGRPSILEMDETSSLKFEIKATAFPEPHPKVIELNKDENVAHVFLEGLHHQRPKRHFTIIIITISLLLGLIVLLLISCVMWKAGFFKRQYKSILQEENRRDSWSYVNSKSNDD

[4] = biological target: T2, integrin α 4 (ITGA4), endogenous mouse (mouse (endogenous in colon)); test: proximity ligation; in situ PLA on colon sections of DSS-treated mice, anti-CRT N-19 and anti-ITGA4 19676-1-AP
[5] = biological target: T3, uniformly 15N-labeled intracellular domain of ITGA4; test: NMR titration; two-dimensional 15N-HSQC, 4 μM 15N-ITGA4 with 4 μM CRT and 800 μM ER-339093-13, 20 mM PB pH 5.5, 10% D2O, 303 K, 700 MHz; both purified
T3 sequence (chain, uniformly 15N-labeled): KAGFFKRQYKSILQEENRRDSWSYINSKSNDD

[6] = biological target: Human CRT expressed as a maltose binding protein fusion protein (human) (UniProt P27797); test: ELISA; HTS cell-free binding assay: CRT coated on a 96-well plate, biotinylated α integrin peptide added in 10 mM phosphate buffer pH 7.4 with compound or vehicle, 1 h at room temperature, HRP-streptavidin, absorbance at 450 nm; both purified

Molecule: Calreticulin (CRT), endogenous human (from UniProt P27797 18-417)
- binding [1]: binds
- binding [2]: binds

Molecule: Calreticulin (CRT), endogenous mouse (from UniProt P14211 18-416)
- binding [3]: no binding
- binding [4]: binds

Molecule: Human CRT protein, His-tag fusion protein (pET-19b) (from UniProt P27797 18-417)
- binding [5]: no binding (condition: with 800 μM ER-339093-13)

B1: N-terminally biotinylated ITGA peptide KAGFFKR (α4) (peptide)
peptide: KAGFFKR
modifications: biotin on the N-terminus
- binding [6]: binds

B2: N-terminally biotinylated ITGA peptide KVGFFKR (αL) (peptide)
peptide: KVGFFKR
modifications: biotin on the N-terminus
- binding [6]: binds

B3: N-terminally biotinylated ITGA peptide KLGFFKR (αM/α2/α5) (peptide)
peptide: KLGFFKR
modifications: biotin on the N-terminus
- binding [6]: binds
